Experimental data reported in PubChem BioAssay AID1487 (National Center for Advancing Translational Sciences (NCATS), 2009).
Out of some 200,000 compounds screened, about 25 (0.01%) were called active. This list was built around the results that the source calls inconclusive (neither active nor inactive); the mix of calls is not that of the screen. Calls follow the shape of the dose curve; as a rule, active = well fitted inhibition curve with a large enough effect in the signal ratio, with a control signal flat (not every such curve was filed as active); inconclusive = small, poorly fitted or top-dose-only effect, or effect the other way, or a change in a side signal; inactive = flat fitted curve, though single readings scatter; the % refers to the signal ratio. A potency beside an inconclusive call is a rough fit, not a confirmed value.

assay: qHTS Assay for Modulators of Lamin A Splicing; settings: HeLa LMNA splicing GFP/RFP minigene ratio, 48 h; ratio change, negative = inhibition: at 46.1 µM (top of the series) unless noted
Excerpt: NCGC Assay Overview: Hutchinson-Gilford Progeria Syndrome (HGPS) is a pediatric premature aging disease caused by a spontaneous mutation in the lamin A/C (LMNA) gene. The mutation activates a cryptic splice site in the LMNA pre-mRNA which results in production of a pre-lamin A protein that cannot be processed properly. The mutant protein accumulates in the nucleus and negatively affects numerous cellular functions. Correction of the splicing defect in HGPS patient cells using a targeted oligonucleotide (exo11) leads to reversal of the cellular disease phenotypes. To identify small molecule modulators of aberrant LMNA splicing, a homogenous assay was constructed in HeLa cells that used a GFP containing minigene to report on correction of aberrant splicing in lamin A and a RFP (DsRed2) to report on cell viability, uniformity and nonspecific effects on the assay signal. This assay was adapted to laser-scanning microplate cytometry (Acumen, TTP Labtech) where miniaturization of the assay to a 1,536-well plate format was possible. References: Bowen, W. P.; Wylie, P. G. Application of Laser-Scanning Fluorescence Microplate Cytometry in High Content Screening. Assay Drug Dev Technol 2006;4:209-221. Scaffidi P, Misteli T. Reversal of the cellular phenotype in the premature aging disease Hutchinson-Gilford progeria syndrome. Nat.
NCGC Assay Protocol Summary: Reagents/Controls: Stable clones expressing DsRed2 and lamin A-EGFP were generated by Cell and Molecular Technologies in S3 HeLa cells. HeLa cells were prepared for the assay when they were 70-90% confluent. The cells were counted and resuspended in Opti-MEM I (no phenol red; Gibco), 2% FBS, 1% penicillin/ streptomycin (Gibco) at concentration of 120 cells/uL concentration. The suspension was passed through a Falcon basket filter with pore size 40um (Beckton Dickson). Control titrations: column […] 1536-well plate contained a sixteen point titration (1:2 dilutions) in duplicate of ancitabine (Sigma: A8598) beginning at 40 uM final concentration. Column 2 contained a sixteen point titration (1:2 dilutions) of cycloheximide beginning at 1.4 mM final concentration. Column 3 contained ancitabine at 40 uM and column 4 contained was the vehicle control (0.5% DMSO final concentration). Assay Steps: 5 uL of HeLa cells were plated in Aurora LoBase black clear bottom (cyclic-olefin polymer) 1536-well plates at a final density of 600 cells/well. Controls and library compounds were added with a 1536-well pin array using the Kalypsys pin-tool. The plates were then incubated for 48 hrs in a cell-culture incubator (37 °C; 5% CO2, 98% humidity). Following incubation the plates were read on the Acumen Explorer using the 488 nm laser. Data was collected on objects between 10 and 100 um in size. Cell objects were defined by a 15 um width x 10 um depth filter. The ratio of the total object intensity in PMT1 (500-530 nm emission; GFP) over PMT3 (575-640 nm emission; RFP) was calculated for analysis. Keywords: NIH Roadmap, MLSCN, MLI, MLSMR, qHTS, NCGC, lamin A, Progeria, RNA splicing.
% is scaled to controls: 0 for no effect and ±100 for the full control effect; potency is read from the fitted curve at half-maximal effect.

Structure (SMILES)	ratio change, negative = inhibition	Potency
COc1ccc(OC)c(-n2c(-c3ccccc3)n[nH]c2=S)c1	inactive: 7.74%	
CSCc1cc(N2CCOCC2)nc(SCc2ccc(Cl)c(Cl)c2)n1	inconclusive: -14.5%	
C#CCN(C)CC/C=C1\c2ccccc2CSc2ccccc21	inconclusive: -12.9%	
Cc1ccc(Cl)c2c1NC(=O)C2(O)CC(=O)c1ccc(Br)cc1 (stereo unspecified)	inactive: 10.4%	
Cc1cc(N(C(=O)c2ccco2)C(C(=O)NC2CCCCC2)c2ccccc2)ccc1-n1cnnn1 (stereo unspecified)	inactive: -7.34%	
CCN(CCCNC(=O)c1c(C)cc(=O)oc1C)c1ccccc1	inactive: -10.8%	
CC(C)c1nn2c(=O)cc(COC(=O)c3ccccc3NC(=O)COc3ccccc3)nc2s1	inactive: 10.2% [at 46 µM]	
Clc1ccc(OCCn2cnc3ccccc32)cc1		inconclusive: 35.5 µM [falling, single point]
CCOc1ccccc1NC(=O)c1c(NCc2cccs2)sc2c1CCC(C)C2 (stereo unspecified)	inconclusive: -19.6% [at 46 µM]	
Cc1noc(C)c1-c1ccc2ncnc(N(C)Cc3ccco3)c2c1	inconclusive: -21.3%	
Cc1nnc(NC(=O)CSc2nccn2Cc2ccc(F)cc2)s1	inconclusive: 15.2% [at 46 µM]	
CCc1ccc(NC(=O)c2cnn(-c3ccccc3)c2C)cc1	inactive: -6.17%	
O=C(NCc1cccc(Cl)c1)c1ccc(S(=O)(=O)Nc2cccc(C(F)(F)F)c2)cc1	inconclusive: -36.7%	
Cc1ccccc1-c1cncnc1N1CCN(C)CC1	inactive: -2.17%	
c1ccc2c(c1)NC1(CCCC1)n1c-2nc2ccccc21	inactive: 3.28%	
COc1ccc(OC)c(-c2c3cc(O)c(=O)cc-3oc3cc(O)c(O)cc23)c1		inconclusive: 15.8 µM [inhibitor, single point]
CCn1nc(C)c(NC(=O)/C=C/c2cnn(C)c2)c1C	inactive: -1.64%	
CN(C)/C=C/C(=O)c1ncc(C(F)(F)F)cc1Cl	inconclusive: -8.47% [at 46 µM]	
CC(=O)N1CCC(N2CCN(Cc3ccc(C)cc3)C(CCO)C2)CC1 (stereo unspecified)	inconclusive: 19.6% [at 46 µM]	
COc1ccc(Br)cc1CNc1ccc(O)cc1	inactive: -5.04%	
CC(NC(=O)COc1cccc(Br)c1)C(=O)O (stereo unspecified)	inactive: 2.85%	

A few values from the entries so far.
CN(C)/C=C/C(=O)c1ncc(C(F)(F)F)cc1Cl – ratio change, negative = inhibition: inconclusive: -8.47% [at 46 µM]
C#CCN(C)CC/C=C1\c2ccccc2CSc2ccccc21 – ratio change, negative = inhibition: inconclusive: -12.9%

(further entries)

Structure (SMILES)	ratio change, negative = inhibition	Potency
O=C(NCCSc1ccccc1)c1ccccc1	inactive: -7.6%	
O=c1c(Cl)c(Cl)cnn1Cc1nnc(-c2ccc(Cl)cc2)o1	inconclusive: 213% [at 9.22 µM]	
COc1ccc(C2(C(=O)Nc3ccc(OC)cc3OC)CCCC2)cc1	inconclusive: -23.5% [at 46 µM]	
COc1ccc(Oc2ncc3nc(CCc4ccccc4)c(=O)n(C[C@H]4CCCO4)c3n2)cc1	inconclusive: -17.8%	
O=C(Nc1ccc(Cl)cc1F)c1cc(S(=O)(=O)NCc2ccc3c(c2)OCO3)ccc1F	inactive: -10.8% [at 46 µM]	
CCOc1ccc(NC(=O)C2CCN(c3nnnn3-c3ccccc3)CC2)cc1	inactive: 5.34%	
CN(C)CCn1c2c(c(SCC(=O)Nc3ccc(F)cc3F)nc1=O)CCC2	inactive: 3.7% [at 46 µM]	
COc1ccc(Cc2nnc(Nc3ccc4c(c3)OCCO4)[nH]c2=O)cc1	inconclusive: 11.7% [at 46 µM]	
CCC(C)(C)n1nnnc1C(c1cccc(C#N)c1)N1CCN(c2cccc(C)c2C)CC1 (stereo unspecified)	inconclusive: 5.16%	
CCOc1ccc(S(=O)(=O)NCC(c2ccco2)S(=O)(=O)c2ccc(F)cc2)cc1 (stereo unspecified)	inactive: 9.99% [at 46 µM]	
Cc1ccc(S(=O)(=O)C/N=C(/NC(=S)N(c2ccccc2)c2ccccc2)c2ccccc2)cc1	inactive: 9.89%	
COc1ccc(C(=O)COc2nc(C)cc(C)c2C#N)cc1	inconclusive: 26.9%	
Cc1cc(N=Cc2c(O)n(-c3ccc(C)c(C)c3)c(=O)c3ccccc23)no1		inconclusive: 3.16 µM [falling, full curve]
COCCN=c1scc(-c2cc(OC)c(OC)c(OC)c2)n1/N=C/c1c(C)[nH]c2ccccc12	inconclusive: -31.5%	
O=C(NCC1CCCO1)c1ccc2c(=O)n(Cc3ccc(Cl)cc3)c(=S)[nH]c2c1 (stereo unspecified)	inconclusive: 98.8% [at 46 µM]	
COc1cccc(N2CCN(Cc3nnnn3C3CCCCC3)CC2)c1	inconclusive: -10.1% [at 46 µM]	
COc1ccc(NC(=O)/C=C/c2ccccc2)c([N+](=O)[O-])c1	inactive: -1.17%	
COc1ccc(NC(=O)Cn2nnc(-c3ccc(CN4CCOCC4)cc3)n2)c(OC)c1	inconclusive: 23.7%	
Cc1cc(C)n(CCCC(=O)O)n1	inconclusive: 21.1% [at 46 µM]	
O=c1c(Cc2ccc(F)cc2)c(O)ccn1Cc1ccc(Cl)cc1Cl	inconclusive: 0.272%	
